In the supplement of paper PMC8728848:
This is one part of the list.

Assays:
Test in all cases: glycan array binding signal (z-score within array); higher = stronger binding
Conditions in all cases: glycan notation: IUPAC condensed, linker removed
[1] = biological target: Gal(b1-4)GlcNAc(b1-6)GalNAc
Method in brief: (§1)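 The Consortium for Functional Glycomics database supplied 3228 glycan arrays, of which those lacking an available protein sequence were dropped. The binding signal, a within-array Z-score, was averaged across arrays of the same protein sequence and across linkers. Negative scores can be read as non-binding.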

[2] = biological target: Gal(b1-4)GlcNAc(b1-6)[Gal(b1-3)]GalNAc
Method in brief: as §1

[3] = biological target: Gal(b1-4)GlcNAc(b1-6)[Gal(b1-4)GlcNAc(b1-3)]GalNAc
Method in brief: as §1

[4] = biological target: Gal(b1-4)GlcNAc6P
Method in brief: as §1

[5] = biological target: Gal(b1-6)Gal
Method in brief: as §1

[6] = biological target: Gal3S(b1-3)GalNAc
Method in brief: as §1

[7] = biological target: Gal3S(b1-3)GlcNAc
Method in brief: as §1

[8] = biological target: Gal3S(b1-3)[Fuc(a1-4)]GlcNAc
Method in brief: as §1

[9] = biological target: Gal3S(b1-4)Glc
Method in brief: as §1

[10] = biological target: Gal3S(b1-4)Glc6S
Method in brief: as §1

[11] = biological target: Gal3S(b1-4)GlcNAc
Method in brief: as §1

[12] = biological target: Gal3S(b1-4)[Fuc(a1-3)]Glc6S
Method in brief: as §1

[13] = biological target: Gal3S(b1-4)[Fuc(a1-3)]GlcNAc
Method in brief: as §1

[14] = biological target: Gal3S(b1-4)[Fuc(a1-3)]GlcNAc6S
Method in brief: as §1

[15] = biological target: Gal3S4S(b1-4)GlcNAc
Method in brief: as §1

[16] = biological target: Gal3S6S(b1-4)GlcNAc
Method in brief: as §1

[17] = biological target: Gal3S6S(b1-4)GlcNAc6S
Method in brief: as §1

[18] = biological target: Gal4S(b1-4)GlcNAc
Method in brief: as §1

[19] = biological target: Gal4S6S(b1-4)GlcNAc
Method in brief: as §1

[20] = biological target: Gal6P(b1-4)GlcNAc
Method in brief: as §1

[21] = biological target: Gal6S(b1-3)GlcNAc
Method in brief: as §1

[22] = biological target: Gal6S(b1-3)GlcNAc6S
Method in brief: as §1

[23] = biological target: Gal6S(b1-4)Glc
Method in brief: as §1

[24] = biological target: Gal6S(b1-4)Glc6S
Method in brief: as §1

[25] = biological target: Gal6S(b1-4)GlcNAc
Method in brief: as §1

[26] = biological target: Gal6S(b1-4)GlcNAc6S
Method in brief: as §1

[27] = biological target: GalNAc(a1-3)Gal
Method in brief: as §1

[28] = biological target: GalNAc(a1-3)GalNAc
Method in brief: as §1

[29] = biological target: GalNAc(a1-3)GalNAc(b1-3)Gal(a1-4)Gal(b1-4)Glc
Method in brief: as §1

[30] = biological target: GalNAc(a1-3)GalNAc(b1-3)Gal(a1-4)Gal(b1-4)GlcNAc
Method in brief: as §1

[31] = biological target: GalNAc(b1-3)Gal
Method in brief: as §1

[32] = biological target: GalNAc(b1-3)Gal(a1-4)Gal(b1-4)GlcNAc
Method in brief: as §1

[33] = biological target: GalNAc(b1-3)Gal(a1-4)Gal(b1-4)GlcNAc(b1-3)Gal(b1-4)Glc
Method in brief: as §1

[34] = biological target: GalNAc(b1-3)Gal(a1-6)Gal(b1-4)Glc
Method in brief: as §1

[35] = biological target: GalNAc(b1-3)GalNAc
Method in brief: as §1

[36] = biological target: GalNAc(b1-3)GlcNAc
Method in brief: as §1

[37] = biological target: GalNAc(b1-4)Gal(b1-4)Glc
Method in brief: as §1

[38] = biological target: GalNAc(b1-4)GlcNAc
Method in brief: as §1

B1: B936 (Bifidobacterium sp) (protein)
chain: MKNWKKAIALVASAAALVSVAACGPSNAGGSSDSGKKTVGFVAVGPEGGFRTANEKDIQKAFEDAGFDLTYSPTQNNDQQKQIQAFNKFVNDEVDAIILSSTEDSGWDDSLKKAAEAEIPVFTVDRNVDVKDAEAKKAIVAHIGPSNVWCGEQAAEFVNKNFPDGANGFILEGPAGLSVVKDRGTGWGNKVASNVKVLESQSANWSTDEAKTVTAGLLDKYKSDNPQFIFAQNDEMGLGAAQAVDAAGLKGKVKIITIDGTKNALQALVDGDLSYVIEYNPIFGKETAQAVKDYLDGKTVEKDIEIESKTFDAASAKEALDNNTRAY
[1]
  glycan array binding signal (z-score): 0.082
[2]
  glycan array binding signal (z-score): 0.173
[3]
  glycan array binding signal (z-score): 0.533
[4]
  glycan array binding signal (z-score): 0.287
[5]
  glycan array binding signal (z-score): 0.112
[6]
  glycan array binding signal (z-score): -0.048
[7]
  glycan array binding signal (z-score): 0.121
[8]
  glycan array binding signal (z-score): -0.11
[9]
  glycan array binding signal (z-score): 0.035
[10]
  glycan array binding signal (z-score): 0.373
[11]
  glycan array binding signal (z-score): 0.227
[12]
  glycan array binding signal (z-score): 0.724
[13]
  glycan array binding signal (z-score): -0.07
[14]
  glycan array binding signal (z-score): -0.058
[15]
  glycan array binding signal (z-score): -0.572
[16]
  glycan array binding signal (z-score): 0.29
[17]
  glycan array binding signal (z-score): 0.156
[18]
  glycan array binding signal (z-score): -0.343
[19]
  glycan array binding signal (z-score): -0.45
[20]
  glycan array binding signal (z-score): -0.541
[21]
  glycan array binding signal (z-score): -0.26
[22]
  glycan array binding signal (z-score): -0.294
[23]
  glycan array binding signal (z-score): -0.536
[24]
  glycan array binding signal (z-score): -1.06
[25]
  glycan array binding signal (z-score): -0.704
[26]
  glycan array binding signal (z-score): 0.127
[27]
  glycan array binding signal (z-score): -0.628
[28]
  glycan array binding signal (z-score): -0.036
[29]
  glycan array binding signal (z-score): -0.58
[30]
  glycan array binding signal (z-score): -0.476
[31]
  glycan array binding signal (z-score): -0.999
[32]
  glycan array binding signal (z-score): 0.581
[33]
  glycan array binding signal (z-score): -0.076
[34]
  glycan array binding signal (z-score): -0.322
[35]
  glycan array binding signal (z-score): 0.226
[36]
  glycan array binding signal (z-score): -0.942
[37]
  glycan array binding signal (z-score): 0.638
[38]
  glycan array binding signal (z-score): -0.353
